In patent US20230277618A1 (BROAD INSTITUTE, published 2023) one finds binding data, which are given here for 1 molecule.

The chains behind the UniProt entries cited, without tags or fusion partners.
UniProt Q9ULH0: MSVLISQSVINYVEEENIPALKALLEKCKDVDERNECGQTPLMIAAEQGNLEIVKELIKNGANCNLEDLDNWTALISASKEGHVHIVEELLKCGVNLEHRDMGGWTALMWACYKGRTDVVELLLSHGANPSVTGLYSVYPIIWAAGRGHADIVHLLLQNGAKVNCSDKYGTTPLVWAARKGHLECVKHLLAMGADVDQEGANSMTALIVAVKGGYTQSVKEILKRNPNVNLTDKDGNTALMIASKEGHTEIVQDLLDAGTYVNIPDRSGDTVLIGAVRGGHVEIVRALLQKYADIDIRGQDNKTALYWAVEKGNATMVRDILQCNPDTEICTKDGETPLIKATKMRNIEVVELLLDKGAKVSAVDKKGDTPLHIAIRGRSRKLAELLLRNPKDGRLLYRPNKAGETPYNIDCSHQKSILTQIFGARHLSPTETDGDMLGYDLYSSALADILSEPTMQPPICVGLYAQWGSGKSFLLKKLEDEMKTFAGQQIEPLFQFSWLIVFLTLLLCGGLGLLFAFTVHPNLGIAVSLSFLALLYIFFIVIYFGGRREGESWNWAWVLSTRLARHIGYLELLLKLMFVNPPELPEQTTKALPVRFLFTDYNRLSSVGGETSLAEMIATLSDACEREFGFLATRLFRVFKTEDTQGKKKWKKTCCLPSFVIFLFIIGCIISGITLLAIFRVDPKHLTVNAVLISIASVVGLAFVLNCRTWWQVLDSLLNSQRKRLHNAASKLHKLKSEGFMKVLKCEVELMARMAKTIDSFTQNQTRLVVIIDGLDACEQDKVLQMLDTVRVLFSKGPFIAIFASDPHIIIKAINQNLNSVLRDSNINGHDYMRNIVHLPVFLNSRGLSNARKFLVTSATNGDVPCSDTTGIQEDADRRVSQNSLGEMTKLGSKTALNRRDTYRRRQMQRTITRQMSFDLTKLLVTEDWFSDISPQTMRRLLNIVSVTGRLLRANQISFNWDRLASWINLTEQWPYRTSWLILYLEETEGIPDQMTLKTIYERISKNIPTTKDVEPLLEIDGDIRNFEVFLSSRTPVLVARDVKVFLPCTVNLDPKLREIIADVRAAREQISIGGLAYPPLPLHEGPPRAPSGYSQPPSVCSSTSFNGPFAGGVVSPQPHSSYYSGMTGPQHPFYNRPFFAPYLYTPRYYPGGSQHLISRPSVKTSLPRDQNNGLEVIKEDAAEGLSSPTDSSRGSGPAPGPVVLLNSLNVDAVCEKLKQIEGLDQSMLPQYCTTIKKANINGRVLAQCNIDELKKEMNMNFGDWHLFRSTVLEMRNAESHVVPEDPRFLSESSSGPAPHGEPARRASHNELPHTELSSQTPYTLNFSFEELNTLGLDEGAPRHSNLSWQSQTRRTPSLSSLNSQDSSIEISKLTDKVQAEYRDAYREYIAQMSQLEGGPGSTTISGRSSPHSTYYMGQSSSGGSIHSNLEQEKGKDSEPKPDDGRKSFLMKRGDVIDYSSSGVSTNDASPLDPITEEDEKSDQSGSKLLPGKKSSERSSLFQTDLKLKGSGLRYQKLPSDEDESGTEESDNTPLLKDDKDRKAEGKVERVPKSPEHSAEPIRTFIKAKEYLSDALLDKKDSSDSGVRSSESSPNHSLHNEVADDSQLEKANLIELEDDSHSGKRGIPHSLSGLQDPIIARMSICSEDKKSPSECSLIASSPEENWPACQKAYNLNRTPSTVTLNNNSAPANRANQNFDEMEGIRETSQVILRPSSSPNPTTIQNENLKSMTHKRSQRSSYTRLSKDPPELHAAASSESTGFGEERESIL

The test addresses KIDINS220 (kinase D interacting substrate 220), endogenous in HEK-293T cells (human) (UniProt Q9ULH0). The experiment in a line: western blot of 293T cells with stable knockout of XPR1 or KIDINS220.

These are yes or no findings as the source states them, for the method shown. Some entries that bind do so weakly or less than the wild type.

B1: XPR1 (xenotropic and polytropic retrovirus receptor 1), endogenous or re-expressed wildtype human XPR1 on cells (receptor)
chain: MKFAEHLSAHITPEWRKQYIQYEAFKDMLYSAQDQAPSVEVTDEDTVKRYFAKFEEKFFQTCEKELAKINTFYSEKLAEAQRRFATLQNELQSSLDAQKESTGVTTLRQRRKPVFHLSHEERVQHRNIKDLKLAFSEFYLSLILLQNYQNLNFTGFRKILKKHDKILETSRGADWRVAHVEVAPFYTCKKINQLISETEAVVTNELEDGDRQKAMKRLRVPPLGAAQPAPAWTTFRVGLFCGIFIVLNITLVLAAVFKLETDRSIWPLIRIYRGGFLLIEFLFLLGINTYGWRQAGVNHVLIFELNPRSNLSHQHLFEIAGFLGILWCLSLLACFFAPISVIPTYVYPLALYGFMVFFLINPTKTFYYKSRFWLLKLLFRVFTAPFHKVGFADFWLADQLNSLSVILMDLEYMICFYSLELKWDESKGLLPNNSEESGICHKYTYGVRAIVQCIPAWLRFIQCLRRYRDTKRAFPHLVNAGKYSTTFFMVTFAALYSTHKERGHSDTMVFFYLWIVFYIISSCYTLIWDLKMDWGLFDKNAGENTFLREEIVYPQKAYYYCAIIEDVILRFAWTIQISITSTTLLPHSGDIIATVFAPLEVFRRFVWNFFRLENEHLNNCGEFRAVRDISVAPLNADDQTLLEQMMDQDDGVRNRQKNRSWKYNQSISLRRPRLASQSKARDTKVLIEDTDDEANT
With B1, the binding entry was “binds”.
